PubChem BioAssay AID1259259 – Sanger Institute – 2017
The deposit covers 794 reagents; shown is a part drawn at random. 9 of all reagents (1.1%) were called active. 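Calls rest on knock-down alone, not drug synergy; viability values seem capped at 1.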 A number with no mark means an inactive call. Further read-outs or replicates are left out here. Not stated in the record: the amount of reagent, the time to read-out.

- Aim: 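Kinome siRNA search for kinases essential alone or combined with trametinib, cetuximab or BYL719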 (primary screen)
- System: SW1463 human colorectal cancer cells
- Knock-down reagent: siRNA pool against human genes
- Treatment: DMSO vehicle, or one anchor drug: BYL719 at 1 µM, cetuximab at 5 µg/ml, or trametinib at 10 nM
- Measured: 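Viability relative to control pool 2 (non-targeting) averaged over replicates, robust z-score for knock-down with no drug, and for each anchor drug the mean synergy score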
- Direction: robust z-score, knock-down alone: higher = more viable cells after knock-down
- Call rule: 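Knock-down called essential when its robust z-score without drug falls below -3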
- Meaning of the calls: active = essential: viability loss from knock-down alone; inactive = no change from knock-down alone

{"Target gene":"VRK3","robust z-score, knock-down alone":-0.795}
{"Target gene":"CRKL","robust z-score, knock-down alone":1.13}
{"Target gene":"NEK1","robust z-score, knock-down alone":1.13}
{"Target gene":"MPP2","robust z-score, knock-down alone":-0.139}
{"Target gene":"ERBB3","robust z-score, knock-down alone":-1.31}
{"Target gene":"PRKCA","robust z-score, knock-down alone":0.198}
{"Target gene":"MAPKAPK3","robust z-score, knock-down alone":-1.24}
{"Target gene":"CAMK1","robust z-score, knock-down alone":-1.57}
{"Target gene":"TAF1","robust z-score, knock-down alone":0.208}
{"Target gene":"MYH10","robust z-score, knock-down alone":-0.444}
{"Target gene":"TAOK1","robust z-score, knock-down alone":1.13}
{"Target gene":"MAP3K21","robust z-score, knock-down alone":-0.17}
{"Target gene":"PKMYT1","robust z-score, knock-down alone":-0.112}
{"Target gene":"STK40","robust z-score, knock-down alone":-0.568}

Part of the list above, set out differently.
Target gene	robust z-score, knock-down alone
NEK1	1.13
MPP2	-0.139

The listing continues.
{"Target gene":"CILK1","robust z-score, knock-down alone":-0.188}
{"Target gene":"MAP3K13","robust z-score, knock-down alone":0.013}
{"Target gene":"MAP3K5","robust z-score, knock-down alone":-1.11}
{"Target gene":"DLG4","robust z-score, knock-down alone":0.831}
{"Target gene":"MAPK10","robust z-score, knock-down alone":0.404}
{"Target gene":"GRK5","robust z-score, knock-down alone":1.13}
{"Target gene":"BRD3","robust z-score, knock-down alone":1.13}
{"Target gene":"FLT1","robust z-score, knock-down alone":0.303}
{"Target gene":"MET","robust z-score, knock-down alone":-1.55}
{"Target gene":"PIKFYVE","robust z-score, knock-down alone":0.71}
{"Target gene":"CDK4","robust z-score, knock-down alone":-2.32}
{"Target gene":"FOXP1","robust z-score, knock-down alone":-1.44}
{"Target gene":"ACVR2A","robust z-score, knock-down alone":0.391}
{"Target gene":"ATR","robust z-score, knock-down alone":-0.209}
